Source: PubChem BioAssay AID1224829 (NIAID, 2016)
Test: 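Secondary check of hits that alter LPS-induced p65 translocation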 (follow-up of hits). Cell system: mouse RAW264.7 G9 macrophage reporter cells. Reagents: single siRNA against mouse genes, 100 nM. Time to read-out: 2 days of siRNA knock-down, then 40 min of LPS before fixing. Conditions: LPS (Salmonella minnesota R595) at 10 ng/ml. Detection: 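High-content images after 40 min LPS exposure; GFP-p65 nucleus to surrounding ring signal ratio, normalised to plate median and non-targeting control wells, expressed as z-score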. Direction: p65 translocation z-score: higher = more nuclear NF-kappaB p65 after LPS. Hit rule: 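Active means the replicate-mean z-score lies beyond plus or minus 2, in either direction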. Meaning of the calls: active = changed p65 translocation (either direction); inactive = no clear change.
The deposit covers about 3,800 reagents; shown is a random part of them. 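Calls cover raised and lowered translocation; gene median uses one vendor's three siRNAs; qiagen siRNAs acted more weakly than ambion siRNAs.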 Reagents against one gene are numbered here. Further read-outs or replicates are left out here. No sequences are given here.

| gene | reagent no. | siRNA vendor or control pool | p65 translocation z-score, replicate mean | Call |
| --- | --- | --- | --- | --- |
| Nfkbid | 1 | ambion single siRNA | 1.73 | inactive |
| Nfkbid | 2 | ambion single siRNA | -1.22 | inactive |
| Nfkbid | 3 | ambion single siRNA | -1.46 | inactive |
| Nfkbid | 4 | qiagen single siRNA | 0.615 | inactive |
| Nfkbid | 5 | qiagen single siRNA | -0.404 | inactive |
| Nfkbid | 6 | qiagen single siRNA | 1.23 | inactive |
| Ccr2 (C-C motif chemokine receptor 2) | 1 | ambion single siRNA | -3.78 | active |
| Ccr2 (C-C motif chemokine receptor 2) | 2 | ambion single siRNA | -4.55 | active |
| Ccr2 (C-C motif chemokine receptor 2) | 3 | ambion single siRNA | -1.36 | inactive |
| Ccr2 (C-C motif chemokine receptor 2) | 4 | qiagen single siRNA | -1.85 | inactive |
| Ccr2 (C-C motif chemokine receptor 2) | 5 | qiagen single siRNA | -1.85 | inactive |
| Ccr2 (C-C motif chemokine receptor 2) | 6 | qiagen single siRNA | -1.64 | inactive |
| Irf8 (interferon regulatory factor 8) | 1 | ambion single siRNA | -2.77 | active |
| Irf8 (interferon regulatory factor 8) | 2 | ambion single siRNA | -2.4 | active |
| Irf8 (interferon regulatory factor 8) | 3 | ambion single siRNA | -2.13 | active |
| Irf8 (interferon regulatory factor 8) | 4 | qiagen single siRNA | 3.86 | active |
| Irf8 (interferon regulatory factor 8) | 5 | qiagen single siRNA | -1.51 | inactive |
| Irf8 (interferon regulatory factor 8) | 6 | qiagen single siRNA | -3.85 | active |

No new results follow: entries from further up.
| gene | reagent no. | siRNA vendor or control pool | p65 translocation z-score, replicate mean | Call |
| --- | --- | --- | --- | --- |
| Irf8 (interferon regulatory factor 8) | 2 | ambion single siRNA | -2.4 | active |
| Irf8 (interferon regulatory factor 8) | 3 | ambion single siRNA | -2.13 | active |
| Irf8 (interferon regulatory factor 8) | 4 | qiagen single siRNA | 3.86 | active |

The listing continues.
| gene | reagent no. | siRNA vendor or control pool | p65 translocation z-score, replicate mean | Call |
| --- | --- | --- | --- | --- |
| Arrdc4 (arrestin domain containing 4) | 1 | ambion single siRNA | 2.2 | active |
| Arrdc4 (arrestin domain containing 4) | 2 | ambion single siRNA | -1.35 | inactive |
| Arrdc4 (arrestin domain containing 4) | 3 | ambion single siRNA | -2.48 | active |
| Arrdc4 (arrestin domain containing 4) | 4 | qiagen single siRNA | 1.2 | inactive |
| Arrdc4 (arrestin domain containing 4) | 5 | qiagen single siRNA | -2.15 | active |
| Arrdc4 (arrestin domain containing 4) | 6 | qiagen single siRNA | -0.436 | inactive |
| Tbx21 (T-box 21) | 1 | ambion single siRNA | 1.71 | inactive |
| Tbx21 (T-box 21) | 2 | ambion single siRNA | 1.08 | inactive |
| Tbx21 (T-box 21) | 3 | ambion single siRNA | 3.49 | active |
| Tbx21 (T-box 21) | 4 | qiagen single siRNA | 0.808 | inactive |
| Tbx21 (T-box 21) | 5 | qiagen single siRNA | 1.25 | inactive |
| Tbx21 (T-box 21) | 6 | qiagen single siRNA | -2.75 | active |
| Atg3 (autophagy related 3) | 1 | ambion single siRNA | 1.02 | inactive |
| Atg3 (autophagy related 3) | 2 | ambion single siRNA | 0.441 | inactive |
| Atg3 (autophagy related 3) | 3 | ambion single siRNA | -1.39 | inactive |
| Atg3 (autophagy related 3) | 4 | qiagen single siRNA | 1.41 | inactive |
| Atg3 (autophagy related 3) | 5 | qiagen single siRNA | 0.464 | inactive |
| Atg3 (autophagy related 3) | 6 | qiagen single siRNA | -2.24 | active |
| Ch25h (cholesterol 25-hydroxylase) | 1 | ambion single siRNA | -1.52 | inactive |
| Ch25h (cholesterol 25-hydroxylase) | 2 | ambion single siRNA | -1.58 | inactive |
| Ch25h (cholesterol 25-hydroxylase) | 3 | ambion single siRNA | -1.29 | inactive |
| Ch25h (cholesterol 25-hydroxylase) | 4 | qiagen single siRNA | 2.06 | active |
| Ch25h (cholesterol 25-hydroxylase) | 5 | qiagen single siRNA | 1.98 | inactive |
| Ch25h (cholesterol 25-hydroxylase) | 6 | qiagen single siRNA | -1.09 | inactive |
| Gtf2f1 (general transcription factor IIF, polypeptide 1) | 1 | ambion single siRNA | -3.05 | active |
| Gtf2f1 (general transcription factor IIF, polypeptide 1) | 2 | ambion single siRNA | -0.788 | inactive |
| Gtf2f1 (general transcription factor IIF, polypeptide 1) | 3 | ambion single siRNA | 1.03 | inactive |
| Gtf2f1 (general transcription factor IIF, polypeptide 1) | 4 | qiagen single siRNA | -1.02 | inactive |
| Gtf2f1 (general transcription factor IIF, polypeptide 1) | 5 | qiagen single siRNA | -1.45 | inactive |
| Gtf2f1 (general transcription factor IIF, polypeptide 1) | 6 | qiagen single siRNA | 1.27 | inactive |
| Ogt | 1 | ambion single siRNA | -1.23 | inactive |
| Ogt | 2 | ambion single siRNA | -1.14 | inactive |
| Ogt | 3 | ambion single siRNA | -2.55 | active |
| Ogt | 4 | qiagen single siRNA | 0.908 | inactive |
| Ogt | 5 | qiagen single siRNA | 0.123 | inactive |
| Ogt | 6 | qiagen single siRNA | 3.19 | active |
